Part of at least one peptide drawing is inferred or uncertain, most often the ends. Where no end group is shown, it is not given here.
Biological target: T1, BTMD-SKI-1 (Homo sapiens, UniProt Q14703)
T1 sequence (Q14703 187-997 limits assumed): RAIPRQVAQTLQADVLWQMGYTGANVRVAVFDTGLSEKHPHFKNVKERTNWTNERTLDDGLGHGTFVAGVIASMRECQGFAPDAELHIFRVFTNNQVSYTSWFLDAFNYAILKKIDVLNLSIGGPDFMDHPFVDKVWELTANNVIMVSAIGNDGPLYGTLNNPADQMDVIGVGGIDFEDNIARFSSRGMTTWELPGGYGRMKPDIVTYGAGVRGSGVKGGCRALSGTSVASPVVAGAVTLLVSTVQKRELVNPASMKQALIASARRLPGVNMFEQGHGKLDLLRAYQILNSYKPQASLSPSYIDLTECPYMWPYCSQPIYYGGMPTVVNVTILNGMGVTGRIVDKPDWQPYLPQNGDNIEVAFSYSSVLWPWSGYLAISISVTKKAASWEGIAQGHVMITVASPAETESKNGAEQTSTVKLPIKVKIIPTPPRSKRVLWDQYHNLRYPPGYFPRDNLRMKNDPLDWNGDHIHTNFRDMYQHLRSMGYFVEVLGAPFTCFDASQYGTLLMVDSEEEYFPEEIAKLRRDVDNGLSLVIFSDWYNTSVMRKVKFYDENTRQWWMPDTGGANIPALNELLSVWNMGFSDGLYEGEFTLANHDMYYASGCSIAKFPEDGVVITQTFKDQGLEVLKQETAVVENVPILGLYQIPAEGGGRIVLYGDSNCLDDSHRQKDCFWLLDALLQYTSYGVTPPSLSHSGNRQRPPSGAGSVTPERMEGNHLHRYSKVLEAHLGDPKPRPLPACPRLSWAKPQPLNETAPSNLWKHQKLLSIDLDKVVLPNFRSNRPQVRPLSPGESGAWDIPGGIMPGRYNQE
T1 sequence (Q14703 17-137 partner limits assumed): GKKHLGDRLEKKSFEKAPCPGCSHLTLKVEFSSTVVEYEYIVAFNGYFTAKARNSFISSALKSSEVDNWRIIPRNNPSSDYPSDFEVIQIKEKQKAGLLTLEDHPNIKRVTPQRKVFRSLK
Experiment: pH optimum and calcium dependence of peptide cleavage by BTMD-SKI-1
Format: biochemical
Details: BTMD-SKI-1 concentrated medium
Experimental: pH Optimum, Calcium-Dependence and Inhibitor Profile—The protocols used were essentially the same as reported previously (13). Stocks of the buffer described above were adjusted to pH 5.0–8.5 at 0.5 unit increments by addition of either acetic acid or sodium hydroxide. In order to investigate the calcium requirement of SKI-1, increasing concentrations of Ca^2+-acetate were used ranging from 0 to 10 mM.

GGAHDSDQHPHSGSGRSVLSFESGSGG [II]
optimal pH for efficient cleavage: 6.5
optimal calcium concentration for efficient cleavage (Ca^2+): 2 mM

From patent US7211424B1, “Mammalian Subtilisin/kexin isozyme SKI-1: a proprotein convertase with a unique cleavage specificity” (Institut de Recherches Cliniques de Montreal, priority 1999, dated 2007)
